# Reference: US20110281896A1, “OPTICALLY PURE QUINAZOLINE COMPOUNDS” (Jiangsu Hansoh Pharmaceutical Co. Ltd, priority 2009, published 2011)
# Test system: human lung cancer Calu-3 xenografts
# Experiment: Effect on xenografts in nude mice with lung cancer Calu-3
# Type: in vivo, BALB/cA-nude mice
# Settings: D16, drug group vs. vehicle control; PO QD × 17; 146.5-146.7 mg/kg
# Method: Effect of compound 97(±), compound 97, compound 110 and Lapatinib (positive control) on xenografts in nude mice with lung cancer Calu-3 Remark: “±” means the compound is racemic.
# The purpose of the experiment is to evaluate and compare the effect of compound 97(±), compound 97, compound 110, Lapatinib on xenografts in nude mice with lung cancer Calu-3.
# BALB/cA-nude mice, 6-7 weeks, ♀, purchased from ShangHai Slac laboratory animal Co., Ltd.
# Calu-3 cells were injected subcutaneously into nude mice. Animals were divided into groups (d0) randomly after tumors have grown to 150-300 mm^3. Dosage and dosage regimen design can be seen in table 1. Tumors volume was measured 2-3 times per week. Mice were weighed and data were recorded. Calculation formula for tumor volume (V) is as below:
# V=½×a×b^2, wherein, a and b represent length and width respectively.
row,SMILES,Relative Value (inal vs. Control) D16
1,"CN(C)[C@@H](CS(C)(=O)=O)c1ccc(-c2ccc3ncnc(Nc4ccc(OCc5cccc(F)c5)c(Cl)c4)c3c2)o1 [Compound 110, (R)—N-(4-(3-fluorobenzyl-oxy)-3-chlorophenyl)-6-(5-(1-(N,N-dimethyl-amino)-2-(methylsulfonyl)ethyl)-2-yl)quinazolin-4-amine]",0.000
2,"CS(=O)(=O)CCNCc1ccc(-c2ccc3ncnc(Nc4ccc(OCc5cccc(F)c5)c(Cl)c4)c3c2)o1 [Lapatinib, reference compound]",0.027
3,"CN(C)[C@H](CS(C)(=O)=O)c1ccc(-c2ccc3ncnc(Nc4ccc(OCc5cccc(F)c5)c(Cl)c4)c3c2)o1 [Compound 97, (S)—N-(4-(3-fluorobenzyloxy)-3-chlorophenyl)-6-(5-(1-(N,N-dimethyl-amino)-2-(methylsulfonyl)ethyl)furan-2-yl)quinazolin-4-amine]",0.037
